Source: the supplement of paper PMC6078165

System: MDAMB436
Assay: relative JC-1 red fluorescence (viability) vs pre-drug, coculture with fibroblast (fraction); higher = more viable cancer cells
Method: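 JC-1 labelled TNBC cells cocultured 1:1 (1,500 cells each) with CellTrace Violet stained primary or stromal fibroblasts in 384-well plates in FluoroBrite medium, treated with one of 42 anticancer drugs at 0.1, 1, 10 or 100 uM. JC-1 red fluorescence (mitochondrial integrity in cancer cells only) was read by plate reader every 8 h for 72 h. Values are normalised to each well's pre-drug value. The stock of one drug was tenfold lower, so its dose labels may be too high.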

O=c1[nH]cc(F)c(=O)[nH]1 [Fluorouracil]
relative JC-1 red fluorescence
Details	8 h	16 h	24 h	32 h	40 h	48 h	56 h	64 h	72 h
0.1 µM, coculture fibroblast: C12385	0.859	0.729	0.729	0.679	0.645	0.634	0.632	0.623	0.623
0.1 µM, coculture fibroblast: H6013	0.868	0.732	0.744	0.734	0.72	0.727	0.689	0.661	0.617
0.1 µM, coculture fibroblast: H6019	0.743	0.6187	0.598	0.516	0.473	0.45	0.422	0.394	0.372
0.1 µM, coculture fibroblast: H6076	0.752	0.643	0.63	0.595	0.583	0.562	0.577	0.57	0.558
0.1 µM, coculture fibroblast: H6231	0.772	0.7	0.666	0.602	0.58105	0.54	0.527	0.504	0.473
0.1 µM, coculture fibroblast: HADF	0.827	0.744	0.734	0.719	0.716	0.735	0.674	0.664	0.625
0.1 µM, coculture fibroblast: HCFa	0.7762	0.656	0.618	0.583	0.545	0.556	0.486	0.475	0.419
0.1 µM, coculture fibroblast: HCPF	0.794	0.703	0.668	0.61	0.587	0.551	0.526	0.501	0.4795
0.1 µM, coculture fibroblast: HHSteC	0.823	0.744	0.723	0.691	0.667	0.674	0.619	0.597	0.5419
0.1 µM, coculture fibroblast: HMF	0.785	0.673	0.647	0.612	0.602	0.577	0.574	0.549	0.539
0.1 µM, coculture fibroblast: HPFa	0.881	0.7959	0.754	0.7	0.664	0.666	0.587	0.555	0.481
0.1 µM, coculture fibroblast: HUF	0.842	0.7191	0.682	0.606	0.55	0.522	0.5	0.4836	0.4739
0.1 µM, coculture fibroblast: Hs5	0.80157	0.702	0.691	0.641	0.632	0.591	0.607	0.571	0.563
0.1 µM, coculture fibroblast: Hs27A	0.794	0.721	0.692	0.669	0.639	0.693	0.597	0.573	0.497
0.1 µM, coculture fibroblast: Hs343T	0.76	0.644	0.589	0.545	0.51	0.483	0.461	0.43642	0.4312
0.1 µM, coculture fibroblast: WS1	0.775	0.633	0.61	0.531	0.489	0.463	0.439	0.41	0.404
1 µM, coculture fibroblast: C12385	0.796	0.654	0.652	0.578	0.529	0.504	0.493	0.479	0.478
1 µM, coculture fibroblast: H6013	0.822	0.7127	0.6917	0.6687	0.647	0.663	0.627	0.615	0.57
1 µM, coculture fibroblast: H6019	0.744	0.644	0.631	0.557	0.522	0.513	0.487	0.466	0.435
1 µM, coculture fibroblast: H6076	0.782	0.653	0.665	0.636	0.61	0.584	0.589	0.582	0.579
1 µM, coculture fibroblast: H6231	0.7398	0.639	0.6218	0.56	0.517	0.504	0.4851	0.464	0.441
1 µM, coculture fibroblast: HADF	0.811	0.719	0.734	0.711	0.708	0.731	0.684	0.679	0.645
1 µM, coculture fibroblast: HCFa	0.7604	0.6586	0.6336	0.599	0.567	0.59	0.519	0.51	0.461
1 µM, coculture fibroblast: HCPF	0.775	0.665	0.652	0.594	0.556	0.527	0.5	0.49	0.465
1 µM, coculture fibroblast: HHSteC	0.844	0.767	0.739	0.699	0.687	0.69	0.631	0.609	0.556
1 µM, coculture fibroblast: HMF	0.789	0.662	0.64	0.599	0.562	0.526	0.52	0.502	0.494
1 µM, coculture fibroblast: HPFa	0.922	0.833	0.74	0.791	0.7214	0.765	0.727	0.68	0.737
1 µM, coculture fibroblast: HUF	0.857	0.731	0.701	0.629	0.568	0.541	0.52	0.501	0.492
1 µM, coculture fibroblast: Hs5	0.844	0.73	0.701	0.634	0.614	0.5674	0.568	0.545	0.536
1 µM, coculture fibroblast: Hs27A	0.837	0.78	0.758	0.744	0.719	0.7758	0.687	0.675	0.606
1 µM, coculture fibroblast: Hs343T	0.774	0.64	0.5965	0.5583	0.5236	0.4895	0.4713	0.46516	0.458
1 µM, coculture fibroblast: WS1	0.777	0.671	0.6681	0.5925	0.552	0.531	0.51	0.492	0.481

The reference is the same well before dosing, and untreated signal decays as well.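 Labels refer to human fibroblasts, largely primary: uterine (C12385, HUF), lung (H6013), bone (Hs27A), adrenal (HADF), skin (WS1), plus mammary HMF and breast cancer-associated Hs343T. Cancer lines are basal-like or mesenchymal-like triple-negative breast cancer. The paper counts as hits responses shifting over 3x the replicate standard deviation. The tissue of the other fibroblasts is not given here.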
